The amount applied is not stated for every result.
Assay: Sensory performance: 5 panelists rub neat compound on the forearm
Type: in vivo
Conditions: neat compound rubbed on forearm; for Residue and greasiness: panelists who mentioned no residue and greasiness was observed: residue left after rub; for Spreading: panelists who mentioned enhanced spreading over Comparative Ex. 2: spreading during rub, versus Comparative Ex. 2 (SF1202); for Soft after feel: panelists who mentioned a softer after feel than Comparative Ex. 1: versus Comparative Ex. 1 (Cetiol Ultimate)
Description: The sensory performance of materials was tested by 5 panelists by rubbing small amount of neat Example compounds or neat Comparative Example compounds on the forearm. The performance was measured for spreading during rub, soft after feel, and residue left after rub.

| SMILES | Residue and greasiness: panelists who mentioned no residue and greasiness was observed | Spreading: panelists who mentioned enhanced spreading over Comparative Ex. 2 | Soft after feel: panelists who mentioned a softer after feel than Comparative Ex. 1 |
| --- | --- | --- | --- |
| CCCCCCCCCCOC(C)(C)C [Example 1, n-decyl-t-butyl ether] | 3 out of 5 | 5 out of 5 | 5 out of 5 |
| CCCCCCCCCCCCOC(C)(C)C [Example 2, n-dodecyl-t-butyl ether] | 3 out of 5 | 5 out of 5 | 5 out of 5 |

— US20240299265A1, “ETHER COMPOUNDS AS VOLATILES FOR THE TREATMENT OF AMINO ACID BASED SUBSTRATES, SUCH AS SKIN AND HAIR” (MOMENTIVE PERFORMANCE MATERIALS GMBH, priority 2021, published 2024)
